PubChem BioAssay AID1259308 – NCATS – 2017

Screen: 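Candidate targets for better recombinant protein yield in mammalian cells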 (primary screen)
Cells: human HEK293 embryonic kidney cells stably expressing firefly luciferase (HEK-CMV-Luc2-Hygro)
Reagent: single siRNA against human genes, 0.8 pmol siRNA per well
Duration: 72 h
Read-out: 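Luciferase light (ONE-Glo) measured on one replicate plate set and viability (CellTiter-Glo) on the other, scaled to a negative control siRNA, with robust z-scores and luciferase per cell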
Direction: total luciferase, z-score and total luciferase, % of control: higher = more reporter protein produced; luciferase per cell, z-score: higher = more reporter output per viable cell; viable cells, % of control: higher = more viable cells
Rule for the call: 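An siRNA counts as active if its total luciferase robust z-score exceeds 3; genes with two or more such siRNAs out of three were retested with fresh siRNAs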
Calls: active = raised luciferase; inactive = no rise
The deposit covers about 59,000 reagents; this is an unselected part. In the full data, about 1,510 (2.6%) got an active call. 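Calls use total luciferase alone and ignore viability, so some active siRNAs may act by altering cell number.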 Unmarked entries are inactive.

target,PubChem SID,"total luciferase, z-score","total luciferase, % of control","luciferase per cell, z-score","viable cells, % of control"
NPNT (nephronectin),SID160762357,-2.41,33.9,-2.32,69.8
NPNT (nephronectin),SID160762358,-0.288,76.2,-0.693,102
NPNT (nephronectin),SID160762359,1.64,115,1.54,85.3
TFPI (tissue factor pathway inhibitor),SID160717971,-0.371,74.5,-0.738,101
TFPI (tissue factor pathway inhibitor),SID160717972,-0.0554,80.8,-0.378,99.7
TFPI (tissue factor pathway inhibitor),SID160717973,-0.0572,80.7,0.0139,89.9
DHFR (dihydrofolate reductase),SID160754128,-0.766,66.6,-0.785,91.6
DHFR (dihydrofolate reductase),SID160754139,0.772,97.2,2.63,54.3
DHFR (dihydrofolate reductase),SID160754150,-0.608,69.8,-0.157,81.3
STARD7 (StAR related lipid transfer domain containing 7),SID160745273,0.747,96.7,0.201,103
STARD7 (StAR related lipid transfer domain containing 7),SID160745275,1.2,106,0.845,94.6
STARD7 (StAR related lipid transfer domain containing 7),SID160745276,-0.578,70.4,-0.742,95.6
MYL4 (myosin light chain 4),SID160777685,-0.163,78.6,-0.0674,89.5
MYL4 (myosin light chain 4),SID160777686,-0.61,69.7,-0.701,93.7
MYL4 (myosin light chain 4),SID160777687,1.89,120,2.1,76.8
SLC6A3,SID160716858,-1.69,48.3,-1.42,78.5
SLC6A3,SID160716859,-1.32,55.7,-1.15,84.2
SLC6A3,SID160716860,1.47,111,0.759,102
NR2C1 (nuclear receptor subfamily 2 group C member 1),SID160718308,-0.394,74.1,-0.469,93.6
NR2C1 (nuclear receptor subfamily 2 group C member 1),SID160718309,-0.389,74.1,-0.589,96.8
NR2C1 (nuclear receptor subfamily 2 group C member 1),SID160718310,-1,62,-0.55,80.1

Next part; the last 7 above are carried over.
target,PubChem SID,"total luciferase, z-score","total luciferase, % of control","luciferase per cell, z-score","viable cells, % of control"
MYL4 (myosin light chain 4),SID160777687,1.89,120,2.1,76.8
SLC6A3,SID160716858,-1.69,48.3,-1.42,78.5
SLC6A3,SID160716859,-1.32,55.7,-1.15,84.2
SLC6A3,SID160716860,1.47,111,0.759,102
NR2C1 (nuclear receptor subfamily 2 group C member 1),SID160718308,-0.394,74.1,-0.469,93.6
NR2C1 (nuclear receptor subfamily 2 group C member 1),SID160718309,-0.389,74.1,-0.589,96.8
NR2C1 (nuclear receptor subfamily 2 group C member 1),SID160718310,-1,62,-0.55,80.1
BUB1B (BUB1 mitotic checkpoint serine/threonine kinase B),SID160738455,1.2,106,2.04,69.1
BUB1B (BUB1 mitotic checkpoint serine/threonine kinase B),SID160738561,0.917,100,1.13,83
BUB1B (BUB1 mitotic checkpoint serine/threonine kinase B),SID160738667,0.287,87.6,0.979,75.6
SLC6A9,SID160716874,-0.266,76.6,-0.421,95.6
SLC6A9,SID160716875,-1.47,52.7,-1.87,96.4
SLC6A9,SID160716876,0.286,87.6,-0.262,105
SINHCAF (SIN3-HDAC complex associated factor),SID160746902,3.29 (active),147,3,74.6
SINHCAF (SIN3-HDAC complex associated factor),SID160746904,-1.55,51.1,-0.348,62.5
SINHCAF (SIN3-HDAC complex associated factor),SID160746905,0.631,94.4,0.633,89.3
RBM42 (RNA binding motif protein 42),SID160748742,0.304,87.9,-0.367,108
RBM42 (RNA binding motif protein 42),SID160748743,2.91,140,2.59,79
RBM42 (RNA binding motif protein 42),SID160748744,0.545,92.7,0.246,97.1
BAZ2A (bromodomain adjacent to zinc finger domain 2A),SID160730124,-0.577,70.4,-0.369,86.7
BAZ2A (bromodomain adjacent to zinc finger domain 2A),SID160730125,2.72,136,1.99,90
BAZ2A (bromodomain adjacent to zinc finger domain 2A),SID160730126,2.33,128,1.78,89.6
ZNF707 (zinc finger protein 707),SID160763773,-0.739,67.2,0.383,67.9
ZNF707 (zinc finger protein 707),SID160763774,-0.388,74.2,0.127,80.1
ZNF707 (zinc finger protein 707),SID160763775,-1.46,52.8,-1.31,83.3
ACP4 (acid phosphatase 4),SID160754539,-1.12,59.6,-0.575,77.6
ACP4 (acid phosphatase 4),SID160754540,0.26,87.1,-0.879,123
ACP4 (acid phosphatase 4),SID160754541,-0.649,69,-1.01,100
MEIKIN (meiotic kinetochore factor),SID160771985,-0.446,73,0.115,79.2
MEIKIN (meiotic kinetochore factor),SID160771986,0.342,88.7,0.377,89.7
MEIKIN (meiotic kinetochore factor),SID160771987,-0.276,76.4,-0.286,92
TRIM63 (tripartite motif containing 63),SID160752574,-0.859,64.8,-0.644,85.8
TRIM63 (tripartite motif containing 63),SID160752575,-0.2,77.9,-0.129,90.1
TRIM63 (tripartite motif containing 63),SID160752576,0.695,95.7,1.05,81.2
SLC10A1,SID160716921,1.38,109,0.368,111
SLC10A1,SID160716922,-0.731,67.4,-0.638,89
SLC10A1,SID160731757,-0.608,69.8,-0.623,91.9
KLHL6 (kelch like family member 6),SID160753463,0.591,93.6,0.908,82.4
KLHL6 (kelch like family member 6),SID160753465,1.04,102,0.604,97.7
KLHL6 (kelch like family member 6),SID160753466,0.568,93.2,1.64,67.7
IFNG (interferon gamma),SID160775595,0.423,90.3,0.29,93.5
IFNG (interferon gamma),SID160775596,-1.19,58.3,-1.04,85.6
IFNG (interferon gamma),SID160775597,-0.0761,80.4,0.106,87.3
